Laboratory results from PMC5135769.
Results are given in words; binding and its absence hold for the method and conditions named. In cells and extracts the contact can be indirect. Some binding calls cover weakened binding; strength is not graded here.

T1: Nup188 (human (endogenous in DLD1)), Q5SRE5
T1 chain: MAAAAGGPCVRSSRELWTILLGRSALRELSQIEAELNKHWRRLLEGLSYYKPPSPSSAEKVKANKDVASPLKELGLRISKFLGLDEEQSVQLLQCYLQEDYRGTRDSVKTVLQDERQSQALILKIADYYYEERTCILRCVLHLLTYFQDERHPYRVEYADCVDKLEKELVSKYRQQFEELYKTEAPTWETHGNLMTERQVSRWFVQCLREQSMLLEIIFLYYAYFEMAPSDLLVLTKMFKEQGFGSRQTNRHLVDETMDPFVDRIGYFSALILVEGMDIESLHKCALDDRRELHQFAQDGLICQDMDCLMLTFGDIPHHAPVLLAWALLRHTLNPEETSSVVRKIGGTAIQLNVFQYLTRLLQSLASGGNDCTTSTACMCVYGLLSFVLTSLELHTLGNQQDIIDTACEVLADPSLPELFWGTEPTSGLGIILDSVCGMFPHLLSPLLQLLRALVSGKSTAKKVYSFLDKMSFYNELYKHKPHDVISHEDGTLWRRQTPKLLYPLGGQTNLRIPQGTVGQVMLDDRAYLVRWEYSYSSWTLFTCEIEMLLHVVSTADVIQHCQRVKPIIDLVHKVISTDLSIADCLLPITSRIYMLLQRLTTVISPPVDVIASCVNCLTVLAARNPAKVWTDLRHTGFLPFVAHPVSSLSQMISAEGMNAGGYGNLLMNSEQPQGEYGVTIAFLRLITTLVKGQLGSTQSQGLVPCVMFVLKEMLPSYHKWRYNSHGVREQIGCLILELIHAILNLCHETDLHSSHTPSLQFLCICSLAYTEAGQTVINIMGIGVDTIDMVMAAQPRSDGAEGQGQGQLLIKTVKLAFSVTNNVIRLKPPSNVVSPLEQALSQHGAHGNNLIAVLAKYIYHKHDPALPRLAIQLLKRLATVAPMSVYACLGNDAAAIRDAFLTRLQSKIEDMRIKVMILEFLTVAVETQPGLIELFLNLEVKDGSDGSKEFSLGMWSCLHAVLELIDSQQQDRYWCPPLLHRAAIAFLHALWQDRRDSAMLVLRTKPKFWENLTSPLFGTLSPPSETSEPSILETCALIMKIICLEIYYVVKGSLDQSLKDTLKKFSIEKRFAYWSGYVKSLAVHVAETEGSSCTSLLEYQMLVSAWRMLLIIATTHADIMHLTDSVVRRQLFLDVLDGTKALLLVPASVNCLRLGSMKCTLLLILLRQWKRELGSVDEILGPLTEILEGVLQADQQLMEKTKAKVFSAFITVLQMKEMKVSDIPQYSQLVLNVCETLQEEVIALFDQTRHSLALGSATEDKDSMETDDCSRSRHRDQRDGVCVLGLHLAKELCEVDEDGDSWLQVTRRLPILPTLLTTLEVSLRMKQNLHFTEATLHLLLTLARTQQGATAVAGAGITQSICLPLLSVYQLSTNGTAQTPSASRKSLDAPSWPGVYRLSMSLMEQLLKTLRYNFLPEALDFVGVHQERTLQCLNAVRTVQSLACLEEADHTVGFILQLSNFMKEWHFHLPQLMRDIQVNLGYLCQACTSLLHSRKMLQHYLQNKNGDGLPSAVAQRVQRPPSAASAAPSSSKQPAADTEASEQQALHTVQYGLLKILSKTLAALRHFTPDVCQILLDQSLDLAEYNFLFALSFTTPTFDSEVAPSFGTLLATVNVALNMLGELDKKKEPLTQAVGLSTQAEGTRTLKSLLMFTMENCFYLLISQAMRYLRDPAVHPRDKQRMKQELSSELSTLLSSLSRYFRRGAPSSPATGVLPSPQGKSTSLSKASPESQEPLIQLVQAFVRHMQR


Experiments:
[1] = molecular target: Nup188 (human (endogenous in DLD1)) (UniProt Q5SRE5); experiment: co-IP; reverse co-IP: IP with anti-Nup188 antibody from DLD1 whole-cell extracts, protein A dynabeads, Western blot; Co-IP buffer 50 mM Tris-HCl pH 8.0, 150 mM NaCl, 0.5% NP-40
[2] = molecular target: T1, Nup188 (human (endogenous in DLD1)), …; experiment: as above; details: remark: other sources report otherwise

Row | binding [1] | binding [2] | Binder
1 | binds | – | Nup93 (protein, UniProt Q8N1F7 1-819) MDTEGFGELLQQAEQLAAETEGISELPHVERNLQEIQQAGERLRSRTLTRTSQETADVKASVLLGSRGLDISHISQRLESLSAATTFEPLEPVKDTDIQGFLKNEKDNALLSAIEESRKRTFGMAEEYHRESMLVEWEQVKQRILHTLLASGEDALDFTQESEPSYISDVGPPGRSSLDNIEMAYARQIYIYNEKIVNGHLQPNLVDLCASVAELDDKSISDMWTMVKQMTDVLLTPATDALKNRSSVEVRMEFVRQALAYLEQSYKNYTLVTVFGNLHQAQLGGVPGTYQLVRSFLNIKLPAPLPGLQDGEVEGHPVWALIYYCMRCGDLLAASQVVNRAQHQLGEFKTWFQEYMNSKDRRLSPATENKLRLHYRRALRNNTDPYKRAVYCIIGRCDVTDNQSEVADKTEDYLWLKLNQVCFDDDGTSSPQDRLTLSQFQKQLLEDYGESHFTVNQQPFLYFQVLFLTAQFEAAVAFLFRMERLRCHAVHVALVLFELKLLLKSSGQSAQLLSHEPGDPPCLRRLNFVRLLMLYTRKFESTDPREALQYFYFLRDEKDSQGENMFLRCVSELVIESREFDMILGKLENDGSRKPGVIDKFTSDTKPIINKVASVAENKGLFEEAAKLYDLAKNADKVLELMNKLLSPVVPQISAPQSNKERLKNMALSIAERYRAQGISANKFVDSTFYLLLDLITFFDEYHSGHIDRAFDIIERLKLVPLNQESVEERVAAFRNFSDEIRHNLSEVLLATMNILFTQFKRLKGTSPSSSSRPQRVIEDRDSQLRSQARTLITFAGMIPYRTSGDTNARLVQMEVLMN
2 | – | no binding | Nup98, P52948 1-880 (protein) MFNKSFGTPFGGGTGGFGTTSTFGQNTGFGTTSGGAFGTSAFGSSNNTGGLFGNSQTKPGGLFGTSSFSQPATSTSTGFGFGTSTGTANTLFGTASTGTSLFSSQNNAFAQNKPTGFGNFGTSTSSGGLFGTTNTTSNPFGSTSGSLFGPSSFTAAPTGTTIKFNPPTGTDTMVKAGVSTNISTKHQCITAMKEYESKSLEELRLEDYQANRKGPQNQVGAGTTTGLFGSSPATSSATGLFSSSTTNSGFAYGQNKTAFGTSTTGFGTNPGGLFGQQNQQTTSLFSKPFGQATTTQNTGFSFGNTSTIGQPSTNTMGLFGVTQASQPGGLFGTATNTSTGTAFGTGTGLFGQTNTGFGAVGSTLFGNNKLTTFGSSTTSAPSFGTTSGGLFGNKPTLTLGTNTNTSNFGFGTNTSGNSIFGSKPAPGTLGTGLGAGFGTALGAGQASLFGNNQPKIGGPLGTGAFGAPGFNTTTATLGFGAPQAPVALTDPNASAAQQAVLQQHINSLTYSPFGDSPLFRNPMSDPKKKEERLKPTNPAAQKALTTPTHYKLTPRPATRVRPKALQTTGTAKSHLFDGLDDDEPSLANGAFMPKKSIKKLVLKNLNNSNLFSPVNRDSENLASPSEYPENGERFSFLSKPVDENHQQDGDEDSLVSHFYTNPIAKPIPQTPESAGNKHSNSNSVDDTIVALNMRAALRNGLEGSSEETSFHDESLQDDREEIENNSYHMHPAGIILTKVGYYTIPSMDDLAKITNEKGECIVSDFTIGRKGYGSIYFEGDVNLTNLNLDDIVHIRRKEVVVYLDDNQKPPVGEGLNRKAEVTLDGVWPTDKTSRCLIKSPDRLADINYEGRLEAVSRKQGAQFKEYRPETGSWVFKVSHF
